From US20240076398A1 come the findings set out here.

Sequences of proteins named here, by UniProt entry; tags and fusion partners are left off. A change or cut given only in a name is not applied to a line headed by its entry.
UniProt P21730: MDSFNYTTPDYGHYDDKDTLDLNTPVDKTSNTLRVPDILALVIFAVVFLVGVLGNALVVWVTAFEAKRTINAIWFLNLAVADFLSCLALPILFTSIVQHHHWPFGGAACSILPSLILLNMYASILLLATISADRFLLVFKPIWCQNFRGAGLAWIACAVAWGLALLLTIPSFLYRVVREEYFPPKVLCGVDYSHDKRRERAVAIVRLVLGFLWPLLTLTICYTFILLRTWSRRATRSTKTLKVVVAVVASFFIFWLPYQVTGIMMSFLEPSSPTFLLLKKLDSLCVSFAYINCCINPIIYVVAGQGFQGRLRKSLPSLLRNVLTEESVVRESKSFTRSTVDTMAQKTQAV

These are yes or no findings as the source states them, for the method shown. Some entries that bind do so weakly or less than the wild type.

B1: Clone_329 (antibody, V domains shown)
VH: QVQLQQSGAELTKPGASVKLSCKASGYTFTNYWMHWVKQRPGQGLEWIGYLNPSSGYTKYNQKFKDKATLTADKSSSTAYMQLNSLTYEDSAVYYCTRSGGDNYGNPYYFDRWGQGTTVTVSS
VL: DVVMTQTPLSLTVSLGDQASISCRSSQSLVHSNGNTYLHWYLQKPGQSPKFLIYKVSNRFSGVPDRFSGSGSGTDFRLKISRVEAEDLGVYFCSQSTLVPLTFGAGTKLEIK
B2: Clone_66 (antibody, V domains shown)
VH: QVQLQQSDAELVKPGASVKISCKASGYTFIDHAIHWVKQRPEQGLEWIGYISPGNGEIKYNEKFKAKATLTADKSSSAAYMQLNSLTSADSAVYFCKRALFYYTGKYQPMDYWGQGTTVTDSS
VL: DIVMTQSQKFMSTTAGDRVSITCKASQNVGSAVVWYQQKPGRSPKLLIYSSSIRYTGVPDRFTGSGSGTDFTLTINSVQSEDLADYFCQQYNSFPLTFGAGTKLEIK
B3: Clone_402 (antibody, V domains shown)
VH: QIQLVQSGPELKKPGETVKISCKASGYTFTTFGMSWVKQAPGKGLKWMGWINTNSGMPTYTDDFRGRFAFSLETSASTAYLQISSLKNEDTATYFCARKSLFYWGQGTTLTVSS
VL: DVVMTQSPLTLSVTIGQPASISCRSSRSLLDSDGKTKLHWLLQRPGQSPKSLIYLVSKLDSGVPNRFTGGGSGTDFTLKINRVEAEDLGVYYCWQGTHFPWTFGVGTKLEIK
B4: Clone_583 (antibody, V domains shown)
VH: EVQLVESGGGLVKPGGSLKLSCAASGFTFNAYAMSWVRQTPEKRLEWVASISTGGNTYCPDSVKDRFTVSRDNVRNILYLQMSSLRSEDTAMYYCTRGYQRFSGFAYWGQGTLVTVS
VL: DVVMTQTPLSPPVSLGYQASISCRSSQSLVHSNGNTYLNWYLQKPGQSPKLLIYKVSNRLSGVPDRFSGSGSGTDFTLKISRVETEDLGVYFCSQSTHVPYTFGGGTKLEIK
B5: Clone_511 (antibody, V domains shown)
VH: QVQLQQSGAELAKPGASVKLSCKTSGYTFTNYWMHWIKQRPGLGLEWIGYINPSGDYTKHNQKFKDKATLTADRSSSTAYMQLSSLTYEDSAVYYCARVPLSYGSGNGPYYFDYWGQGTTLTVSS
VL: DVVMTQTPLSLPVSLGDHASISCRSSQSLVHSNGNIYLHWYLQRPGQSPKLLIHKVSNRFSGVPDRFSGSGSGTDFTLKISRVEAEDVGIYFCSQSTLVPLTFGSGTKLELK
B6: Clone_453 (antibody, V domains shown)
VH: QVQLKQSGPGQVAPSQSLSITCTVSGFSLINSAVHWVRQSPGKGLEWLGVIWSDGSTDYNTAFISRLSISRDNSKSQVFFKMRSLQVDDTAVYYCARNGRLGNAMDYWGQGTSVTVSS
VL: DIVMTQSPSSLAVSVGEKVTMSCKSSQSLFSSRTRKNYLAWYQQKPGQSPKLLIYWASTRESGVPYRFTGSGSGTDFTLTISSVQTEDLAVYYCKQSYNLLTFGAGTKLEL
B7: Clone_518 (antibody, V domains shown)
VH: QVQLQQSGAELAKPGASVKLSCKTSGYTFTNYWMHWIKQRPGLGLEWIGYINPSGDYTKHNQKFKDKATLTADRSSSTAYMQLSSLTYEDSAVYYCARVPLSYGSGNGPYYFDYWGQGTTLTVSS
VL: DVVMTQTPLSLPVSLGDHASISCRSSQSLVHSNGNTYLHWYLQRPGQSPKLLIHKVSNRFSGVPDRFSGSGSGTDFTLKISRVEAEDVGIYFCSQSTLVPLTFGSGTKLELK
B8: Clone_588 (antibody, V domains shown)
VH: DVQLQESGPGLVKPSQSLSLTCTVTGYSITSDYAWNWIRQFPGNKLEWMGYISYSGSIRYNPSLKSRISITRDTSKNQFFLQLNSVTTEDTATYYCAITTGGYFDYWGQGTTLTVSS
VL: DIQMTQSTSSLSASLGDRVTISCRASQDISNYLNWYQQTPDGTVKLLIYQISRLHSGVPSRFSGSGSGTDYSLTISNLEEEDIANYFCQQGNSLPPTFGGGTKVEIK
B9: Clone_336_V2-1 (antibody, V domains shown)
VH: QVQLKQSGPGLVQSSQSLSITCTVSGFSLISYGVHWVRQSPGKGLEWLGVIWSGGSTDYNAAFKSRLSITKDNSKSQVFFKMNSLQADDTAIYYCAKNSQLGNAMDYWGQGTTVTVSS
VL: DIVMSQSPSSLAVSAGEKVTMSCKSSQSLLSSRTRKNYLAWYQQKPGQSPKLLIYWASTRESGVPDRFTGSGSGTDFTLTISSVQAEDLALYFCNQSYDLLTFGAGTKLEIK
B10: Clone_584 (antibody, V domains shown)
VH: DVQLQESGPDLVKPSQSLSLTCTVTGYSITSGYSWHWIRQSPGNKLEWLAYIHNSGSTNYNPSLKSRISITRDTSKNQFFLKLNSVTTEDTATYYCARSIGDYWGQGTTLAVSS
VL: DVVMTQTPLSLPVSLGDRASISCRSGQSLVHSNGNTYLHWYLQRPGRSPNLLIYKVSNRFSGVPDRFSGSGSGTDFTLKISRVEAEDLGVYFCSQSTHVPWTFGGGTKLEIK
B11: antibody 343 (antibody, V domains shown)
VH: QVQLQQSGAELVKPGASVKLSCKASGYTFTEYTIHWVNQRSGQGLEWIGWFYPGSGSIKYNEKFKDKATLTADKSSHTVYMELSRLTSEDSAVYFCARHGNYYDGSWFAYWGQGTLVTVSA
VL: DVQITQSPSYLAASPGETITINCRASKSISKYLAWYQEKPGKTNKLLIYSGSTLQSGIPSRFSGSGSGTDFTLTISSLEPEDFAMYYCQQHDEYPWTFGGGTKLEIK
B12: antibody 317 (antibody, V domains shown)
VH: QVQLQQPGAELVMPGASVKLSCKASGYTFTSYWLHWVRQRPGQGLEWIGEIDPSDGYSNHNQKFKGKATLTVDKSSSTAYMQLSSLTSEDSAVYYCATEGFWGQGTTVTVSS
VL: DIVMTQSPSSLSVSAGEKVTMSCKSSQSLLKSGNQKNYLAWHQQKPGQPPKLLIYGASTRESGVPDRFTGSGSGTDFTLTISSVQAEDLAVYYCQNDHSHPYTFGGGTKLEIK

One test has as its target biotinylated cyclic ECL2 peptide of C5aR1 (human). The test is described as follows: peptide epitope mapping.
With B1, the binding entry was “binds”.

The target in another test is human C5aR1 (complement component 5a receptor 1) (human) (UniProt P21730). The test is described as follows: flow cytometry on human neutrophils, titration 10^-7.5 to 10^-12 M. Background: A flow cytometer gives signals particle by particle.
On to B2, for which the binding result is given as “binds”.

The next test deals with biotinylated N-terminal peptide of C5aR1 without tyrosine sulfation (human). The test is described as follows: BLI, peptide on streptavidin sensor. (In BLI a coated tip is dipped into the sample, and binding shifts an interference pattern.)
As for B3, the binding result is reported as “binds”.
On to B4, for which the binding entry is “binds”.

The next test has as its target biotinylated cyclic ECL2 peptide of C5aR1 (human). The test is described as follows: BLI, peptide on streptavidin sensor.
As to B5, the binding result was “binds”.
For B6, the binding entry is given as “binds”.
In the case of B1, the binding result is “binds”.
Still for that read-out and setting: next, B7: “binds”; B8: “binds”; B9: “binds”.
Still for that read-out and setting: the entry for B10 is “binds”.
On the same count and under the same terms, the entry for B11 is “binds”; for B12 it is “binds”.
